# Several values for one entry are separate records, joined by “and”; a condition that tells them apart may be missing. Identical values can stand only once. The campaign covered roughly 400,000 compounds. About 5,500 (1.4%) were called active. The shares of active, inactive and inconclusive entries below differ from those in the screen. Calls come from the whole dose curve; as a rule, active = well fitted cell-killing curve with a large enough effect; inconclusive = small, poorly fitted or top-dose-only effect, or effect the other way; inactive = flat fitted curve, though single readings scatter. A potency beside an inconclusive call is a rough fit, not a confirmed value.
# Assay: qHTS assay for MDR1-selective chemotherapeutics: Primary screen using the parental adenocarcinoma cell KB-3-1; note: nearly all actives have a fitted effect of over 60% in size
# Details: KB-3-1 viability, CellTiter-Glo ATP luminescence, 72 h; activity change, negative = cytotoxic: at 46.1 µM (top of the series)
# In short: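 Cytotoxicity in the drug-sensitive parental line KB-3-1 was scored as loss of CellTiter-Glo luminescence following 72 h incubation with compound. Values come from curve fitting of normalized concentration-response data.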
# % is set by controls: 0 for no effect and ±100 for the full control effect; potency is the fitted concentration of half-maximal effect.
Structure (SMILES),Potency,"activity change, negative = cytotoxic"
CCOC(=O)c1nn(-c2ccccc2)c2nnc(Cc3ccc(C)cc3)c(=O)n12,inactive,–
COc1cc(C(=O)Oc2ccccc2/C=N/NC(=O)c2ccc(C)cc2)cc(OC)c1OC,active: 8.2 µM,–
CCCCOc1ccc(NC(=O)CSc2ccc(C(=O)O)cn2)cc1,inactive,–
CCOC(=O)C1(CC2CC2)CCN(S(=O)(=O)/C=C/c2ccccc2)CC1,inactive,–
Cc1ccccc1/C=c1\s/c(=C\C(=O)C(C)(C)C)[nH]c1=O,"inconclusive: 29.1 µM [cytotoxic, single point]",–
COC(=O)C(C(=O)OC)c1ccccc1NS(=O)(=O)c1c(C)cc(C)cc1C,"inconclusive: 29.1 µM [cytotoxic, single point]",–
CSc1nc2c(cnn2-c2ccc(C)c(C)c2)c(=O)[nH]1,active: 1.64 µM,–
CCOc1cc(C2C(C(=O)c3ccc(C)o3)=C(O)C(=O)N2CCc2ccccc2)ccc1O (configuration not stated),inactive,–
Cc1cccc(C)c1-n1nnnc1C(c1ccnc2ccccc12)N1CCN(C(=O)OCc2ccccc2)CC1 (configuration not stated),"inconclusive: 29.1 µM [cytotoxic, single point]",–
O=C(N/N=C/c1ccc(Cl)cc1)c1sccc1OCc1ccc(F)cc1,active: 1.46 µM,–
CCCCCC1CC(=O)C=C(C)C1C(=O)OC (configuration not stated),inactive,–
OCc1cn(-c2ccccc2)nc1-c1cc2ccccc2o1,"inconclusive: 29.1 µM [rising, single point]",–
COc1ccccc1C(=O)Nc1ccccc1SC(=O)c1ccccc1OC,"inconclusive: 18.4 µM [cytotoxic, single point]",–
CCc1nc2ccccc2c(=O)n1NC(=O)c1c(O)c2cccc3c2n(c1=O)CCC3,"inconclusive: 29.1 µM [cytotoxic, single point]",–
COC(=O)c1cn(C(=O)c2ccc(C)cc2C)c2ccccc12,"inconclusive: 11.6 µM [cytotoxic, partial curve, poor fit]",–
Cc1ccc(-c2noc(CCC(=O)NCCCN3CCN(c4cccc(Cl)c4)CC3)n2)cc1,active: 18.4 µM,–
COc1ccc(CNC(=O)O[C@H]2C[C@@H]3C(=O)N(c4ccccc4)C(=O)[C@@H]3[C@@H]3CN(S(=O)(=O)c4ccc(C)cc4)C[C@]23O)cc1OC,–,inconclusive: 21%
O=C(NCc1nc2ccccc2[nH]1)C1=C[C@H](c2ccc(C(F)(F)F)cc2)C[C@H](OCc2ccc(CO)cc2)O1,"inconclusive: 29.1 µM [cytotoxic, single point]",–
COc1ccc(N(Cc2cc3ccccc3[nH]c2=O)S(=O)(=O)c2ccc(OC)cc2)cc1,"inconclusive: 29.1 µM [cytotoxic, single point]",–
Cc1nc2c(OCc3ccc(C(F)(F)F)cc3)cccn2c1N(C)Cc1cccs1,inactive,–
O=C(Nc1cc(S(=O)(=O)N2CCOCC2)ccc1N1CCOCC1)c1ccc([N+](=O)[O-])s1,"inconclusive: 29.1 µM [cytotoxic, single point]",–
C/C(=N/N=C(\C)c1ccccc1O)c1ccccc1O,inactive,–
Cc1cc(N/N=C/c2ccccc2[N+](=O)[O-])nc(-n2nc(C)cc2C)n1,"inconclusive: 16.4 µM [cytotoxic, partial curve]",–

Structure (SMILES),Potency,"activity change, negative = cytotoxic"
COc1ccc(CCNC(=O)c2c([S-])n(-c3ccc(C)cc3)c3cccc[n+]23)cc1,active: 11.6 µM,–
Cc1cc(NS(=O)(=O)c2ccccc2)c([N+](=O)[O-])cc1C,"inconclusive: 23.1 µM [cytotoxic, single point]",–
O=C(Nc1cnccn1)Nc1cccc(Cl)c1Cl,"inconclusive: 29.1 µM [cytotoxic, single point]",–
COc1cc(C2c3cc4c(cc3OC(C)(N3CCCC3)C2C)OCO4)cc(OC)c1OC (configuration not stated),active: 1.46 µM,–
Cc1noc(C)c1CSCC(=O)Oc1ccc(N(C)S(=O)(=O)c2ccc(Cl)cc2)cc1,inactive,–
COc1ccccc1NS(=O)(=O)c1cc(NC(=O)c2ccc(Cl)nc2)ccc1N1CCCC1,inactive,–
CC1CCC(NC(=O)CCS(=O)(=O)c2ccc3c(c2)CCN3C(=O)C2CC2)CC1 (configuration not stated),inactive,–
COc1cccc(/C=N/NC(=O)c2c(C)nc3ccc(Cl)cn23)c1O,"inconclusive: 3.66 µM [cytotoxic, full curve]",–
O=C(COc1ccccc1)NCc1ccc2c(c1)CCN2C(=O)c1ccc(Cl)cc1,inactive,–
Cc1ccc(C2CCN(C(=O)c3cnn(-c4cccc(Cl)c4)c3C3CCN(C(=O)OC(C)(C)C)CC3)C2)cc1 (configuration not stated),"inconclusive: 11.6 µM [cytotoxic, partial curve, poor fit]",–
O=C1NC(=S)SC1=Cc1ccc2c(c1)OCO2,"inconclusive: 20.6 µM [cytotoxic, single point]",–
O=C(O)CCC(=O)OCCCc1cc2ccccc2c(=O)o1,"inconclusive: 29.1 µM [rising, single point]",–
COc1cc(/C=C/[N+](=O)[O-])ccc1OC(=O)/C=C/c1ccc(F)cc1,"inconclusive: 18.4 µM [cytotoxic, single point]",–
COc1cc(-c2noc(C)c2C#Cc2ccsc2)cc(OC)c1OC,"inconclusive: 517 nM [cytotoxic, full curve, poor fit] and inconclusive: 29.1 µM [cytotoxic, partial curve, poor fit]",–
CCc1nc2ccc(C(=O)Nc3cc(-c4ccccc4)ccc3OC)cn2c1N(CCN(C)C)CC1CC1,"inconclusive: 29.1 µM [cytotoxic, single point]",–
COc1ccccc1Cc1c(-c2ccco2)nc2ccc(C)cn12,"inconclusive: 18.4 µM [cytotoxic, single point]",–
CCN1/C(=C/C=C/C=C/c2sc3ccccc3[n+]2CC)Sc2ccccc21,"inconclusive: 5.17 µM [cytotoxic, full curve, poor fit]",–
COc1ccc(Oc2ccccc2C=O)cc1,inactive,–
O=C(Nc1ccccc1F)Nc1ccccc1N1CCCCC1,"inconclusive: 18.4 µM [cytotoxic, partial curve, poor fit]",–
O=C(CSc1nnnn1-c1cccc2c1CCCC2)N1CCCC1,"inconclusive: 20.6 µM [cytotoxic, single point]",–
CN1CCN(C(c2cccc(Cl)c2)c2ccccc2Cl)CC1 (configuration not stated),"inconclusive: 32.6 µM [cytotoxic, single point]",–
Cc1ccc(C)c(C2C(=O)c3ccccc3C2=O)c1,inactive,–
O=C(Nc1cccc(O)c1)c1cc(-c2ccccc2Cl)on1,inactive,–

Structure (SMILES),Potency,"activity change, negative = cytotoxic"
COCCN(C(=O)COC(=O)/C=C/c1ccc2ccccc2n1)c1c(N)n(Cc2ccccc2)c(=O)[nH]c1=O,"inconclusive: 29.1 µM [cytotoxic, partial curve, poor fit]",–
CCc1ccc(C2CC(=O)NC(SCC(=O)OC(C)C)=C2C#N)cc1 (configuration not stated),"inconclusive: 25.9 µM [cytotoxic, single point]",–
CCN(CC)S(=O)(=O)c1ccc(NC(=O)NCc2noc3ccc(C)cc23)cc1,"inconclusive: 29.1 µM [cytotoxic, single point]",–
COc1ccccc1NC(=O)NNC(=O)C(C)Oc1ccc2ccccc2c1 (configuration not stated),inactive,–
COC(=O)CN1C(=S)N(C)C(=O)C1CC(=O)Nc1ccccc1 (configuration not stated),"inconclusive: 18.4 µM [rising, partial curve, poor fit]",–
O=C(c1ccc(N2CCN(C(=O)c3ccccc3)CC2)cc1)c1cccc(F)c1,"inconclusive: 18.4 µM [cytotoxic, single point]",–
CC1CCN(S(=O)(=O)c2ccc3c(c2)oc(=O)n3CC(=O)NCc2ccc3c(c2)OCO3)CC1,"inconclusive: 14.6 µM [cytotoxic, partial curve]",–
COc1ccc(OC)c(Nc2nc(N)nc(-c3cc4ccccc4o3)n2)c1,"inconclusive: 29.1 µM [cytotoxic, single point]",–
O=C(CSc1ncnc2nc[nH]c12)c1ccc(Cl)cc1,"inconclusive: 0.58 µM [cytotoxic, full curve, poor fit]",–
O=C(Nc1ccccc1N1CCN(C(=O)c2ccccc2)CC1)c1ccc([N+](=O)[O-])o1,"inconclusive: 29.1 µM [cytotoxic, single point]",–
CCOc1ccc(CN(C)CC(=O)NCc2ccccc2Cl)cc1,"inconclusive: 29.1 µM [cytotoxic, single point]",–
Cc1ccc(CN2CCCCC2C(=O)Nc2ccc(Oc3cccnc3)cc2)o1 (configuration not stated),active: 5.17 µM,–
COc1ccc(Cc2noc(CN3CCC(c4ccncc4)CC3)n2)cc1OC,"inconclusive: 11.6 µM [cytotoxic, partial curve, poor fit]",–
CC(C)N(C(=O)c1ccc2nc(-c3ccccc3)c(-c3ccccc3)nc2c1)C(C)C,"inconclusive: 23.1 µM [cytotoxic, single point]",–
CCc1ccc(-c2nc(CN3CCC(C(=O)NCCc4ccc(OC)c(OC)c4)CC3)c(C)o2)cc1,"inconclusive: 18.4 µM [cytotoxic, partial curve]",–
COc1cccc(CNc2nc(NCc3ccccc3OC)nc3ccsc23)c1,"inconclusive: 29.1 µM [cytotoxic, single point]",–
COc1ccc(-n2nc([N+](=O)[O-])c(=NCc3cccnc3)n2O)cc1,inactive,–
CCn1c(SCc2nc3ccccc3[nH]2)nnc1-c1cnccn1,"inconclusive: 29.1 µM [cytotoxic, single point]",–
COc1ccc(-n2c3c(cc(-c4nc(-c5ccc(C)cc5)cs4)c2=O)C(=O)CC(C)(C)C3)cc1,inactive,–
O=C(NCc1ccccc1)c1ccco1,inactive,–
CCCC(=O)NC1CCc2cc(OC)c(OC)c(OC)c2-c2ccc(OC)c(=O)cc21 (configuration not stated),active: 0.13 µM,–

# Reference: PubChem BioAssay AID1347075 (National Center for Advancing Translational Sciences (NCATS), 2019)
